Measured values: PubChem BioAssay AID743255 (National Center for Advancing Translational Sciences (NCATS), 2014)
Screen size: about 390,000 compounds; about 910 (0.23%) were called active. This list was built around the results that the source calls inconclusive (neither active nor inactive); the mix of calls is not that of the screen. Calls follow the shape of the dose curve; as a rule, active = well fitted inhibition curve with a large enough effect; inconclusive = small, poorly fitted or top-dose-only effect; inactive = no such curve, though single readings can be large or run the other way. Potencies beside an inconclusive call are fits to weak or partial responses and may not hold up.

By UniProt entry, the sequences of proteins in these tests, tags left out. Where a name states a change or a piece, a line headed by the entry shows the natural chain unless it says otherwise.
UniProt O94782: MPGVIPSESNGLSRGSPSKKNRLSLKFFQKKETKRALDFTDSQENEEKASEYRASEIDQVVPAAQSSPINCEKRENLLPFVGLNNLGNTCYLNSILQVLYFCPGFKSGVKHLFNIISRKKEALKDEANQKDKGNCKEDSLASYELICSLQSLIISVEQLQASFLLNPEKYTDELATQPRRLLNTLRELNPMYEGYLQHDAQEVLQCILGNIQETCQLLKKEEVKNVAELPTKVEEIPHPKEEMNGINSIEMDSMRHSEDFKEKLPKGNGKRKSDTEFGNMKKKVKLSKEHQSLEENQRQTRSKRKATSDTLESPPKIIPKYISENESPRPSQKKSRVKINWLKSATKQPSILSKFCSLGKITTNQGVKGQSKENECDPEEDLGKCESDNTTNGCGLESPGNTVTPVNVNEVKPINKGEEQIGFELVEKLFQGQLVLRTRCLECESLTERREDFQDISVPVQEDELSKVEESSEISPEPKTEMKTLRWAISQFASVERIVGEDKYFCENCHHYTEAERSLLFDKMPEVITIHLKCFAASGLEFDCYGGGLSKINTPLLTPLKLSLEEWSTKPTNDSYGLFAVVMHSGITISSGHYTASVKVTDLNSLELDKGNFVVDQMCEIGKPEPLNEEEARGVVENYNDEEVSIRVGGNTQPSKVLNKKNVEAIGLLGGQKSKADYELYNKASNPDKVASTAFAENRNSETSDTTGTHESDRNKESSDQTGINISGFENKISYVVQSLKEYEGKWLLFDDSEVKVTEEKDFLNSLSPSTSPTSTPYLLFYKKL

Molecular target: Ubiquitin carboxyl-terminal hydrolase 1 (Homo sapiens) (UniProt O94782)
Assay: Inhibitors of USP1/UAF1: Primary Screen; also: nearly all actives have a fitted effect of over 60% in size
Details: recombinant USP1/UAF1, Ub-Rhodamine cleavage fluorescence; activity change, negative = inhibition: at 57.1 µM (top of the series)
Outline: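 Step one: compound is pinned into 1nM USP1/UAF1 in HEPES pH 7.8 buffer with TCEP. Step two: 15 min room-temperature incubation. Step three: Ub-Rho (150nM final) starts cleavage, tracked by fluorescence over six one-minute reads.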
% is scaled to controls: 0 for no effect and ±100 for the full control effect; potency is read from the fitted curve at half-maximal effect.

SMILES | Potency | activity change, negative = inhibition
CCOC(=O)C1=C2c3ccc4ccccc4c3CC(C)(C)N2C(=O)C1=O | inconclusive: 50.1 µM [inhibitor, partial curve, poor fit] | 
Cc1ccc(C)c(S(=O)(=O)NCc2ccc(C(=O)N3CCCCC3C)cc2)c1 (centres undefined) | inconclusive: 6.31 µM [inhibitor, single point] | 
CNc1nc(N2CCc3ccccc32)ncc1F | inconclusive: 2.51 µM [inhibitor, partial curve] | 
CCOC(=O)c1cnc2ccc(OC)cc2c1NCCc1ccccc1 | inconclusive: 31.6 µM [inhibitor, single point] | 
Cn1c(=O)c2c(SCC(=O)NCc3ccco3)nc(-c3ccccc3)nc2n(C)c1=O |  | inactive: -11%
O=C(NCc1ccccc1)c1sc(=S)n2c1[nH]c(=O)c1ccccc12 | inconclusive: 39.8 µM [inhibitor, partial curve] | 
CCN(CC)CCSc1nc2ccccc2n1Cc1ccccc1 |  | inactive: -23.5%
CC(=O)N1N=C2c3ccccc3CCC2C1c1ccc(F)cc1 (centres undefined) | inconclusive: 5.01 µM [inhibitor, full curve] | 
S=c1[nH]nc2nnc3ccccc3n12 | inconclusive: 15.8 µM [inhibitor, partial curve, poor fit] | 
O=C(CSc1nnc(-c2ccccc2)o1)c1nnc(-c2ccccc2)o1 | inconclusive: 39.8 µM [inhibitor, partial curve, poor fit] | 
COc1cc(/C=N/NC(=O)c2cccc(S(=O)(=O)N3CCCC3)c2)cc(OC)c1O |  | inactive: -8.81%
Cc1ccc(O)c(/C=N/NC(=O)COc2ccc3c(C)cc(=O)oc3c2)c1 | inconclusive: 79.4 µM [inhibitor, partial curve, poor fit] | 
Cc1ccc(-c2nnc(Nc3ccc(Cl)c(Cl)c3)c3ccccc23)cc1S(=O)(=O)N(C)C | inconclusive: 0.631 µM [inhibitor, full curve, poor fit] | 
COc1ccc(OC)c(NC(=O)c2sc3nc(Cc4ccccc4)cc(C(F)(F)F)c3c2N)c1 | inconclusive: 3.98 µM [inhibitor, partial curve] | 
CCNC(=O)C1CCCN(c2nnc(C)c3c(C)n(-c4ccc(C)cc4)nc23)C1 (centres undefined) | inconclusive: 39.8 µM [inhibitor, partial curve, poor fit] | 
COC(=O)c1ccccc1NC(=O)C1(c2cccs2)CCOCC1 | inconclusive: 0.0562 µM [inhibitor, full curve, poor fit] | 
c1cc(Nc2cccc3nccnc23)c2nccnc2c1 |  | inactive: -23.5%
CC1=C(C(=O)OCc2ccc3c(c2)OCO3)C(c2ccccc2)NC(=O)N1 (centres undefined) |  | inactive: 2.64%
CCCCN(C(=S)SC)C1CCS(=O)(=O)C1 (centres undefined) | inconclusive: 17.8 µM [inhibitor, partial curve] | 
O=C(COC(=O)Cc1ccccc1F)Nc1ccc2c(c1)OCO2 | inconclusive: 2 µM [inhibitor, partial curve] | 
Cc1ccc(Cl)cc1NC(=O)Cn1nc(-c2cccs2)ccc1=O | inconclusive: 50.1 µM [inhibitor, single point] | 
CCOc1cc(/C=N/NC(=O)c2cccnc2)ccc1OC(=O)c1ccco1 | inconclusive: 50.1 µM [inhibitor, partial curve, poor fit] | 

SMILES | Potency | activity change, negative = inhibition
CCOC(=O)c1ccc(S(=O)(=O)Nc2cc(S(=O)(=O)N3CCOCC3)ccc2O)cc1 | inconclusive: 50.1 µM [inhibitor, partial curve, poor fit] | 
CCCN(CCC)CCN1C(=O)C2C(C(=O)Nc3cccc(SC)c3)C3C=CC2(O3)C1C(=O)NC1CCCCC1 (centres undefined) | inconclusive: 0.631 µM [inhibitor, full curve, poor fit] | 
CC(=O)N1CCN(c2nc3c(C)ccc(Cl)c3s2)CC1 | inconclusive: 5.01 µM [inhibitor, partial curve] | 
O=C(O)c1ccccc1-c1ccccc1C(=O)Nc1ccc2c(c1)C(O)c1ccccc1-2 (centres undefined) | inconclusive: 0.251 µM [inhibitor, full curve, poor fit] | 
Cc1ccc(NC(=O)c2ccco2)cc1 | inconclusive: 0.251 µM [inhibitor, full curve, poor fit] | 
Nc1ccc(/C=C/c2ccc3ncccc3c2)cc1 | inconclusive: 44.7 µM [inhibitor, partial curve, poor fit] | 
COc1cc2c(C#N)c(N3CCCCC3)nc(N)c2c(N)n1 | inconclusive: 50.1 µM [inhibitor, partial curve] | 
COc1cc2c(cc1OC)C(C)N(CCc1ccc(Cl)cc1)CC2 (centres undefined) | inconclusive: 0.501 µM [inhibitor, partial curve, poor fit] | 
Cc1ccc(C)n1-c1cccc(S(=O)(=O)N2CCOCC2)c1 | inconclusive: 0.251 µM [inhibitor, full curve, poor fit] | 
CCOc1ccc(S(=O)(=O)N(C(=O)c2ccco2)c2cc3sc(=O)oc3c3ccccc23)cc1 |  | inactive: -20.9%
NC(=O)COc1ccc(/C=N/NS(=O)(=O)c2ccccc2)cc1 | inconclusive: 35.5 µM [inhibitor, partial curve] | 
CN(C)c1ccc(NC2=C([N+](=O)[O-])CS(=O)(=O)C2)cc1 |  | inactive: -8.16%
CC(=O)c1c(NCc2ccccc2)nc(=O)n(-c2ccccc2)c1C |  | inactive: -19.5%
CCN1C(=O)/C(=C\C=C2/C=CC=CN2CC)SC1=S | inconclusive: 35.5 µM [inhibitor, partial curve] | 
CC(C)[C@H](NC(=O)OCc1ccccc1)C(=O)OCc1ccccc1 | inconclusive: 14.1 µM [inhibitor, partial curve] | 
CCc1nn(CC(=O)N2CCN(c3cc(C)ccc3C)CC2)c(=O)c2cc3occc3n12 | inconclusive: 0.708 µM [inhibitor, full curve, poor fit] | 
COc1ccc(Cl)cc1NC(=O)C1CCN(S(=O)(=O)c2ccc3c(c2)CCCN3C(=O)C2CCC2)CC1 |  | inactive: -6.39%
CCCn1c(=O)c(C(=O)NCCc2ccccc2)c(O)c2ccccc21 | inconclusive: 44.7 µM [inhibitor, partial curve] | 
CCc1ccc(S(=O)(=O)c2nnn3c2nc(NCc2cccc(OC)c2)c2cc(Cl)ccc23)cc1 | inconclusive: 10 µM [inhibitor, partial curve, poor fit] | 
C=CCN1C=C2C(=O)C(C)(OC(=O)c3cccs3)C(=O)C=C2C=C1CCCC(=O)OC (centres undefined) | inconclusive: 50.1 µM [inhibitor, partial curve, poor fit] | 
CCc1ccc(NS(=O)(=O)c2ccc(C)c(C(=O)N3CCOCC3)c2)cc1 | inconclusive: 56.2 µM [inhibitor, partial curve, poor fit] | 
Cc1ccc2nc(-c3cccc(Cl)c3)c(Nc3ccc4c(c3)OCO4)n2c1 | inconclusive: 0.0794 µM [inhibitor, full curve, poor fit] | 

SMILES | Potency | activity change, negative = inhibition
CCCCCC(=O)Nc1ccc(N2CCN(CC)CC2)c(Cl)c1 |  | inactive: -2.63%
Cc1ccc(/C=C/C(=O)OCC(=O)NCc2cccs2)o1 | inconclusive: 0.562 µM [inhibitor, full curve, poor fit] | 
c1ccc(-c2nc3ccccc3[nH]2)cc1 |  | inactive: 11.1%
CCc1c(O)nc(SC2CC(=O)N(c3ccccc3)C2=O)[nH]c1=O (centres undefined) |  | inactive: -11%
CC(=O)NS(=O)(=O)c1ccc(Nc2ccc([N+](=O)[O-])c3nonc23)cc1 | inconclusive: 39.8 µM [inhibitor, partial curve, poor fit] | 
COc1ccccc1C(=O)N1c2ccccc2C(C)(c2ccc(Cl)cc2)CC1(C)C (centres undefined) | inconclusive: 44.7 µM [inhibitor, partial curve] | 
Cc1cccc(N(C)C(=O)c2cc(S(=O)(=O)N3CCCCC3)c[nH]2)c1 | inconclusive: 50.1 µM [inhibitor, partial curve, poor fit] | 
CCCC(CCC)C(=O)Nc1nnc2n1CCS2 | inconclusive: 7.08 µM [inhibitor, single point] | 
CC1CCCCC1NCC(=O)NCc1ccc(F)cc1 (centres undefined) | inconclusive: 39.8 µM [inhibitor, single point] | 
O=C(Cc1ccsc1)Nc1cc(F)ccc1F |  | inactive: -25.9%
O=C(Nc1ccc(S(=O)(=O)N2CCCCC2c2cccnc2)cc1)c1ccc(F)cc1 (centres undefined) | inconclusive: 2.51 µM [inhibitor, partial curve] | 
CCCCN(C)CCCNC(=O)CN1C(=O)CSc2ccc(S(=O)(=O)N3CCOCC3)cc21 | inconclusive: 1.58 µM [inhibitor, partial curve, poor fit] | 
CCNC1=C(Cl)C(=O)c2ccccc2C1=O | inconclusive: 31.6 µM [inhibitor, partial curve] | 
O=C(Nc1ccc(Nc2ccccc2)cc1)C(Cl)(Cl)Cl |  | inactive: -18.4%
Cc1cc(C)c2nc(N3C(=O)C(O)=C(C(=O)c4ccco4)C3c3ccc(O)cc3)sc2c1 (centres undefined) | inconclusive: 28.2 µM [inhibitor, partial curve] | 
CCOc1cc(/C=C2/C(=N)N3C(=NC2=O)SN=C3S(=O)(=O)C(C)C)ccc1OC(=O)c1ccco1 | inconclusive: 25.1 µM [inhibitor, partial curve] | 
Cc1ccc(-c2nc3nc(C)cc(N4CCN(c5cccc(C)c5)C(C)C4)n3n2)cc1 (centres undefined) | inconclusive: 6.31 µM [inhibitor, full curve, poor fit] | 
COc1ccc(OC)c(-c2csc(NC(=O)COC(=O)C3(C)CC3(Cl)Cl)n2)c1 (centres undefined) |  | inactive: -25.5%
Cc1ccc(-c2nnn(CC(=O)N(c3ccccc3F)C(C(=O)NC3CCCC3)c3ccncc3)n2)o1 (centres undefined) | inconclusive: 56.2 µM [inhibitor, partial curve, poor fit] | 
COc1ccc(CNS(=O)(=O)CCNCc2ccco2)cc1 | inconclusive: 50.1 µM [inhibitor, partial curve, poor fit] | 

Of the compounds above, 2 contain a nitro group on carbon:
SMILES | Potency | activity change, negative = inhibition
CN(C)c1ccc(NC2=C([N+](=O)[O-])CS(=O)(=O)C2)cc1 |  | inactive: -8.16%
CC(=O)NS(=O)(=O)c1ccc(Nc2ccc([N+](=O)[O-])c3nonc23)cc1 | inconclusive: 39.8 µM [inhibitor, partial curve, poor fit] | 
